In patent US20160340421A1:
Residue numbers refer to the chain shown, from its start. Results are given in words; binding and its absence hold for the method and conditions named. Some binding calls cover weakened binding; strength is not graded here.

Columns and labels:
[1] = target: T1, T65 chimera: GDF8.1-64.TGFβ1.69-76.GDF8.73-109 (Mus musculus (Mouse)) (UniProt O08689); assay: Western blot of CHO.hFurin supernatant, antibody 2 µg/ml
T1 sequence: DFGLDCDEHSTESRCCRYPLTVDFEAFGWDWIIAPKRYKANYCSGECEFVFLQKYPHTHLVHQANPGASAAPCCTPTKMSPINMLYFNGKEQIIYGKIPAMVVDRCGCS

[2] = target: T2, B65 chimera: GDF8.1-64.BMP2.68-77GDF8.73-109 (Mus musculus (Mouse)) (UniProt O08689); assay: as above
T2 sequence: T1 sequence with P66S, G67V, A68N, A70K, A71I

[3] = target: T3, B91 chimera: GDF8.1-90.BMP2.96-110.GDF8.106-109; assay: as above
T3 sequence: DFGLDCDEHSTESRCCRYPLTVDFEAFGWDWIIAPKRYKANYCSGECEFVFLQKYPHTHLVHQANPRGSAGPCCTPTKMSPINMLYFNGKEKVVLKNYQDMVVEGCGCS

[4] = target: T4, hGDF8 peptide 8 (52-72), C-terminal biotinylated (human); assay: Luminex peptide beads, antibody 2.5 µg/ml
T4 sequence (peptide, C-terminal biotin): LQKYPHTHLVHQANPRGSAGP

[5] = target: T5, hGDF8 peptide 4 (48-65), C-terminal biotinylated (human); assay: Luminex peptide beads, antibody 2.5 µg/ml
T5 sequence (peptide, C-terminal biotin): EFVFLQKYPHTHLVHQAN

[6] = target: T6, hGDF8 peptide 12 (73-90), C-terminal biotinylated (human); assay: Luminex peptide beads, antibody 2.5 µg/ml
T6 sequence (peptide, C-terminal biotin): CCTPTKMSPINMLYFNGK

[7] = target: T7, hGDF8 peptide 7 (52-65), unmodified (human); assay: Luminex peptide beads, antibody 2.5 µg/ml
T7 sequence (peptide): LQKYPHTHLVHQAN

[8] = target: T8, hGDF8 peptide 5 (48-69), C-terminal biotinylated (human); assay: Luminex peptide beads, antibody 2.5 µg/ml
T8 sequence (peptide, C-terminal biotin): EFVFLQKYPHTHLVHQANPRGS

[9] = target: T9, hGDF8 peptide 6 (48-72), N-terminal biotinylated (human); assay: Luminex peptide beads, antibody 2.5 µg/ml
T9 sequence (peptide, N-terminal biotin): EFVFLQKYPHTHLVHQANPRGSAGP

[10] = target: T10, hGDF8 peptide 7 (52-65), C-terminal biotinylated (human); assay: Luminex peptide beads, antibody 2.5 µg/ml
T10 sequence (peptide, C-terminal biotin): LQKYPHTHLVHQAN

[11] = target: T11, hGDF8 peptide 8 (52-72), unmodified (human); assay: Luminex peptide beads, antibody 2.5 µg/ml
T11 sequence (peptide): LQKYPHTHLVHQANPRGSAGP

[12] = target: T12, hGDF8 peptide 5 (48-69), unmodified (human); assay: Luminex peptide beads, antibody 2.5 µg/ml
T12 sequence (peptide): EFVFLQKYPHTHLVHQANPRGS

[13] = target: T13, hGDF8 peptide 9 (56-65), C-terminal biotinylated (human); assay: Luminex peptide beads, antibody 2.5 µg/ml
T13 sequence (peptide, C-terminal biotin): PHTHLVHQAN

[14] = target: T14, hGDF8 peptide 6 (48-72), C-terminal biotinylated (human); assay: Luminex peptide beads, antibody 2.5 µg/ml
T14 sequence (peptide, C-terminal biotin): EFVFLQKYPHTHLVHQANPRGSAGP

[15] = target: T15, hGDF8 peptide 6 (48-72), unmodified (human); assay: Luminex peptide beads, antibody 2.5 µg/ml
T15 sequence (peptide): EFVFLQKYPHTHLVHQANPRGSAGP

[16] = target: T16, hGDF8 peptide 4 (48-65), unmodified (human); assay: Luminex peptide beads, antibody 2.5 µg/ml
T16 sequence (peptide): EFVFLQKYPHTHLVHQAN

8D12 = assay: Western blot with antibody pre-incubated with peptide, 50 fold molar excess

Measured: binding

B1: 8D12 (antibody, V domains shown)
VH: QVQLVESGGGVVQPGRSLRLSCAASGFTFSRYGIHWVRQAPGKGLEWVAVISYDGSDEYYVDSVKGRFSISRDNSKNTLYLQMNSLRPADSAVYYCVKGDLELGFDYWGQGTLVTVSS
VL: DIVMTQAAPSIPVIPGESVSMSCRSSKSLLYSNGHTYVYWFVQRPGQSPQLLIYRMSNLASGVPDRFSGSGSGTAFTLRISRVEAEDVGVYYCMQNLEFPLTFGAGTKLELK
not listed: 8D12
binds: all other assays above

B2: 1A2 (antibody, V domains shown)
VH: EVQLLESGGGLVQPGGSLRLSCAASGFTSITYAMSWVRQAPGKGLEWVSAISVSGTNTYYADSVKGRFTISRDKSKNMLYLQMNSLRAEDTAVYYCAKDLLHNWKYGTFDIWGQGTMVTVSS
VL: EIVMTQSPATLSVSPGERATLSCRASQSVDSNLVWYQQKPGQVPRLLIYGASTRATGIPARFSGSGSGTEFTLTISSLQSEDFAVYYCQQYNKWPLTFGGGTKVEIK
binds: [2]

EFVFLQKYPHTHLVHQANPRGSAGP [hGDF8 peptide 6 (48-72), unmodified]
binds: 8D12
